PubChem BioAssay AID1159578 – Peter MacCallum Cancer Centre, 2015

Assay: 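Knock-downs that alter how fast lymphatic endothelial cells migrate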 (primary screen)
System: human lymphatic endothelial cells
Knock-down reagent: siRNA pool against human genes, 40 nM
Duration: 48 h after transfection
Measurement: 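High-content imaging of dye-stained cells in a scratch assay measures filled wound area and nuclei per well; duplicate means given as ratio to mock and robust z-score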
Scale: migration robust z-score: higher = faster migration into the scratch; migration relative to mock: higher = more scratch area covered than mock; nuclei per well: higher = more cells in the well
Hit rule: 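Migration changed when robust z exceeds 2 or falls below -2 and mean nuclei number is at least 3300; otherwise not called changed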
Calls: active = migration changed; inactive = no migration change, or too few cells
The whole screen tested about 18,000 reagents; this is a random part of them. Of all reagents, about 1,030 (5.7%) got an active call. 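Inactive calls also include pools with fewer than 3300 nuclei, whose migration was not assessed.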 Raw values are not corrected between plates. A number with no mark means an inactive call.

target	migration robust z-score	migration class with cell-count check	migration relative to mock	nuclei per well, duplicate mean
ZNF805	-0.04	migration z between -2 and 2; enough cells	0.88	6026
MSI1	0.34	migration z between -2 and 2; enough cells	0.97	5312
UTF1	-0.96	migration z between -2 and 2; enough cells	0.62	6135
PNCK	-1.4	migration z between -2 and 2; enough cells	0.54	4027
BIN1	-0.77	migration z between -2 and 2; enough cells	0.68	6473
NPIPB15	-0.48	migration z between -2 and 2; enough cells	0.76	5818
H2AC17	0.32	migration z between -2 and 2; enough cells	0.97	5142
TIMP1	0.23	migration z between -2 and 2; enough cells	0.85	5187
ARFIP2	0.48	migration z between -2 and 2; enough cells	1.01	5819
CD58	-0.6	migration z between -2 and 2; enough cells	0.72	3891
PLAAT5	-0.28	migration z between -2 and 2; enough cells	0.82	5302
DPYSL5	-0.08	migration z between -2 and 2; enough cells	0.86	6894
SLC25A14	-1.45	migration z between -2 and 2; enough cells	0.52	5754
TSKU	0.62	migration z between -2 and 2; enough cells	1.04	5492
STAG3L2	0.74	migration z between -2 and 2; enough cells	1.08	6156
CYRIA	-0.5	migration z between -2 and 2; enough cells	0.76	6416
ASRGL1	0.13	migration z between -2 and 2; enough cells	0.92	6208
H4C14	-0.15	migration z between -2 and 2; enough cells	0.85	5284
LYSMD1	2.07 (active)	migration z above 2; enough cells	1.42	6326
IPO9	2.11 (active)	migration z above 2; enough cells	1.43	4954
CDKN2D	-5.53	under 3300 nuclei; migration not judged	-0.26	1445
E2F5	0.36	migration z between -2 and 2; enough cells	0.88	5876
CNPY3	-0.52	migration z between -2 and 2; enough cells	0.75	5433
AFDN-DT	0.56	migration z between -2 and 2; enough cells	1.02	5996
TFEC	0.49	migration z between -2 and 2; enough cells	0.9	6288
AMN	0.13	migration z between -2 and 2; enough cells	0.92	5746
COL26A1	-0.36	migration z between -2 and 2; enough cells	0.79	6063
ITPR1	2.34 (active)	migration z above 2; enough cells	1.25	5870
IQSEC2	1.41	migration z between -2 and 2; enough cells	1.25	5136
TRAP1	0.99	migration z between -2 and 2; enough cells	1	5333
PCDHB6	-0.29	migration z between -2 and 2; enough cells	0.81	6559
EEF1E1	0.05	migration z between -2 and 2; enough cells	0.82	6102
TAFA2	1.45	migration z between -2 and 2; enough cells	1.26	6100
CYP4F12	-2	migration z between -2 and 2; enough cells	0.42	5152
DNASE1L2	0.36	migration z between -2 and 2; enough cells	0.88	6352
PRSS55	-1.72	migration z between -2 and 2; enough cells	0.44	6782
PIMREG	0.14	migration z between -2 and 2; enough cells	0.92	5788
NFE2L3	-1.61	migration z between -2 and 2; enough cells	0.5	5500
VEPH1	-0.84	migration z between -2 and 2; enough cells	0.66	6184
USP31	-0.52	migration z between -2 and 2; enough cells	0.7	6670
AARSD1	-0.65	migration z between -2 and 2; enough cells	0.68	4856
OR6K2	0.1	migration z between -2 and 2; enough cells	0.92	5812
PEX5L	-1.42	migration z between -2 and 2; enough cells	0.52	3814
GRM4	0.65	migration z between -2 and 2; enough cells	0.93	5244
LTO1	-0.6	migration z between -2 and 2; enough cells	0.73	5087
CCDC86	0.52	migration z between -2 and 2; enough cells	1.02	5633
F8A1	0.74	migration z between -2 and 2; enough cells	1.08	5002
CELA2B	0.29	migration z between -2 and 2; enough cells	0.86	5405
CASTOR1	-0.02	migration z between -2 and 2; enough cells	0.88	5752
FUT1	0.78	migration z between -2 and 2; enough cells	0.96	5972
SMIM14	-1.72	under 3300 nuclei; migration not judged	0.44	2808
SMARCE1	0.42	migration z between -2 and 2; enough cells	0.88	4003
SLC39A6	1.28	migration z between -2 and 2; enough cells	1.21	7148
ZNF418	1.87	migration z between -2 and 2; enough cells	1.37	7552
CHST6	-2.1 (active)	migration z below -2; enough cells	0.4	5450
HOXC5	-4.1 (active)	migration z below -2; enough cells	0.02	4503
KCNJ1	-1.4	migration z between -2 and 2; enough cells	0.54	4066
PCOTH	0.62	migration z between -2 and 2; enough cells	1.04	5610
FAM186B	0.79	migration z between -2 and 2; enough cells	1.08	4374
POLR3GL	-0.24	migration z between -2 and 2; enough cells	0.82	4452
PHLPP2	0.6	migration z between -2 and 2; enough cells	0.92	4884
RPAP2	-1.73	migration z between -2 and 2; enough cells	0.44	5662
C6	0.7	migration z between -2 and 2; enough cells	1.06	5824
IRAK1BP1	0.27	migration z between -2 and 2; enough cells	0.96	5222
C11orf40	1.53	migration z between -2 and 2; enough cells	1.28	7022
SLC6A15	-1.27	migration z between -2 and 2; enough cells	0.56	4574
USP20	-0.34	migration z between -2 and 2; enough cells	0.74	4684
ADORA1	-0.91	migration z between -2 and 2; enough cells	0.63	5276
ANXA11	1.25	migration z between -2 and 2; enough cells	1.21	6076
AADACL2	-1.23	migration z between -2 and 2; enough cells	0.56	4284
PDPN	1.01	migration z between -2 and 2; enough cells	1.15	7020
KLHL23	-1.19	migration z between -2 and 2; enough cells	0.57	6090
TXN	-1.03	migration z between -2 and 2; enough cells	0.6	3990

No new results follow: an excerpt of the list.
target	migration robust z-score	migration class with cell-count check	migration relative to mock	nuclei per well, duplicate mean
CNPY3	-0.52	migration z between -2 and 2; enough cells	0.75	5433
AFDN-DT	0.56	migration z between -2 and 2; enough cells	1.02	5996
TFEC	0.49	migration z between -2 and 2; enough cells	0.9	6288
